From paper PMC7819943, “Rice protein-binding microarrays: a tool to detect cis-acting elements near promoter regions in rice”
The list shows a part of the results.

These sequences were tested against T1, OsSMF1 (Oryza sativa, UniProt Q6ZLB0 1-436) (assay: protein-binding microarray (RPBM); PBS, 2% BSA, 51.3 ng/ul salmon testes DNA, 50 uM zinc acetate, 200 nM TF, 25 C, 1 h; high values mean tight binding). Conditions: protein: recombinant; tags: N-terminal polyhistidine and DsRed monomer fusion (pET32a); chain copies: 2; label: CyDye5-dUTP incorporated in the synthesized complementary strand; 3' TTTTT single-stranded linker to array surface; dsDNA, one strand shown.
T1 sequence: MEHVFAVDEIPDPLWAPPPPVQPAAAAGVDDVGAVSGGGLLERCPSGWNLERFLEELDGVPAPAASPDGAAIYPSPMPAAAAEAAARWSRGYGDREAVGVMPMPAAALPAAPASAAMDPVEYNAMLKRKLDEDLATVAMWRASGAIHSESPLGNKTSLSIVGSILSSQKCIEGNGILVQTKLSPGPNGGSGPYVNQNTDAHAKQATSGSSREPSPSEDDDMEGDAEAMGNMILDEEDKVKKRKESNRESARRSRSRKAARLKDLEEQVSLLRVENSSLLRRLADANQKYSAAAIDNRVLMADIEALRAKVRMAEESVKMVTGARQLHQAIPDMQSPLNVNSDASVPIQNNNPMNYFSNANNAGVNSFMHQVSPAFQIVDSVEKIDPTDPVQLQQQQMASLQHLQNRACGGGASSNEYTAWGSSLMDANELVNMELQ
In short: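 Transcription factors were each fused at the N-terminus to a polyhistidine tag plus DsRed and expressed in E. coli BL21-CodonPlus before Ni–NTA purification. Binding to a double-stranded custom Agilent array was carried out with 200 nM protein at 25 °C for 1 h in PBS, 2% BSA, salmon testes DNA and 50 µM zinc acetate. The binding signal is per-feature fluorescence intensity, in arbitrary units, on an Axon 4000B scanner.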
“CAGTCGAGTTTTGAATATTTAGATCAATCATATACCATTACGGAGTCACCTAGTGCAG” was tested, and the binding signal was 34500 fluorescence intensity (a.u.). With “TGGGGCCCACGTGGACCCCACCTGTCATCCTCATTACCCCCGGAGTCACCTAGTGCAG” the binding signal was 13400 fluorescence intensity (a.u.). With “CCATCTAAAACAGTTCGCGTGCAGTCCAGCTCCAGCCCAACGGAGTCACCTAGTGCAG” the binding signal was 3190 fluorescence intensity (a.u.). “TGTCGCCACTAGCCGCCGCCAACCACCAACCCGTCATCGACGGAGTCACCTAGTGCAG” was tested, and the binding signal was 3230 fluorescence intensity (a.u.). In the case of “ATAAAATAATGCGACCGGTGTCCTACGGCTAATTACACGTCGGAGTCACCTAGTGCAG”, the binding signal is reported as 3240 fluorescence intensity (a.u.). In the case of “CGGTCAGGGTCGCGTGTCAGCCACACCATTGGGATTGGCGCGGAGTCACCTAGTGCAG”, the binding signal is reported as 3370 fluorescence intensity (a.u.). In the case of “ACCGAACCACACAACAACCGTCGCGGAACCACCACATCATCGGAGTCACCTAGTGCAG”, the binding signal is reported as 4910 fluorescence intensity (a.u.). “GGTTGAGGCAATGACAATGGCGCAGCAGCTTTCTCTGAGGCGGAGTCACCTAGTGCAG” was tested, and the binding signal was 3800 fluorescence intensity (a.u.). For “TTGATCTTTAATTAGTACATGAAAGACACGTAGATTTTGACGGAGTCACCTAGTGCAG”, the binding signal was 3930 fluorescence intensity (a.u.). “CGCCGCTCGATCCGCCTTGGCGCTTGCCCACGCGTCCACGCGGAGTCACCTAGTGCAG” was tested, and the binding signal was 5990 fluorescence intensity (a.u.). For “GTGTAACACACCATTCCCTGACGTCGCAGCAATGGACCAGCGGAGTCACCTAGTGCAG”, the binding signal was 3780 fluorescence intensity (a.u.). In the case of “GATGGTGACTTTTCCACAACTGCATTCAGGATGCTAGGCTCGGAGTCACCTAGTGCAG”, the binding signal is reported as 3350 fluorescence intensity (a.u.). “ATTTAATAAAACTTATTTGGTGTTGTAAATGTTGCTAAATCGGAGTCACCTAGTGCAG” was tested, and the binding signal was 26700 fluorescence intensity (a.u.). With “GTGAAATCTCCTCTTGACCCCGCGATGACTACGCCGCACTCGGAGTCACCTAGTGCAG” the binding signal was 3230 fluorescence intensity (a.u.). “CCGGCCACCGCACGCTGACGTGTGGGGCCCACGCGGCCACCGGAGTCACCTAGTGCAG” was tested, and the binding signal was 13600 fluorescence intensity (a.u.). With “CTATATGTCTGTATATGACTTCGCAATCAGCCAATCAATTCGGAGTCACCTAGTGCAG” the binding signal was 3260 fluorescence intensity (a.u.). “AGAAAAGGACATGCACATACTACTCTCTGACTCAGCAAACCGGAGTCACCTAGTGCAG” was tested, and the binding signal was 12400 fluorescence intensity (a.u.). For “TCACTCGGCCTACATGGGCTGACGCTGCGGCCTGCTTCGGCGGAGTCACCTAGTGCAG”, the binding signal was 4910 fluorescence intensity (a.u.). For “TAGGGTTGCGGGGCTGACGAAGAACACGCCACCTTCCGCACGGAGTCACCTAGTGCAG”, the binding signal was 4520 fluorescence intensity (a.u.). For “CTGGAGGAAATCAGAGTTGGTCCGGCTCAAGTTCCACGAGCGGAGTCACCTAGTGCAG”, the binding signal was 5240 fluorescence intensity (a.u.). “CCTGAACTTGTTCAGAGGGAGAACAAGTTGACATAGTATACGGAGTCACCTAGTGCAG” was tested, and the binding signal was 11200 fluorescence intensity (a.u.). In the case of “CACTTTACAACAGTAAACAATCACAACTTCCGTAAGATCTCGGAGTCACCTAGTGCAG”, the binding signal is reported as 3150 fluorescence intensity (a.u.). In the case of “GCTGTCCTGCTCGTCGGCCTCCACGCGCGCTCATCGGCCTCGGAGTCACCTAGTGCAG”, the binding signal is reported as 3240 fluorescence intensity (a.u.).
